Measured values published in paper PMC10163288.
This is one part of the list.

B1: il10ra_site1_normal_mot_b26a303360aa2756ef5b79665ce52f45_0001_000000179_0001_1_11_H_._HHH_b1_04981_0001_0000100001_0000002_0_af2pred_0001 (protein)
chain: SSSSNEEIEEVIELLREAAELLRKGNPEEAEKLLEEAERLAKELGNTTLEFAVEFLLKQARSSSS
B2: il10ra_site1_sap_19_mot_HHH_b2_00723_000000075_0001_22_38_H_._HHH_b2_03083_0001_0000200008_0000002_0_0001 (protein)
chain: SSSSDEEYARLAVRFAEAMLRAGNEKAAELELELMLSALRRNGDEEAAEIIEEALEAVKGSSSSS
B3: il10ra_site1_normal_mot_HHH_b2_04912_000000028_0001_1_20_H_._HHH_b1_01231_af2_0001_0000400044_0000002_0 (protein)
chain: SSSSNDEALELVLEALRLALRGDFEEAKEVLEEAAKIAEEEGNERLLRVIRELLQAIESQLSSSS
B4: il10ra_site1_sap_25_mot_HHH_b1_03106_000000018_0001_1_19_H_._HHH_b2_06377_0001_0000200015_0000001_0_0001 (protein)
chain: SSSSSEEREEVLELSLEAFRLALRGDPEEARKLLEEAERLAEELNSPTALMAIRSMLKALSSSSS
B5: il10ra_site1_sap_11_mot_HHH_b1_05084_000000041_0001_41_57_H_._HHH_b2_07221_0001_0000300028_0000001_0_0001 (protein)
chain: SSSSDEEEYIRLALRFARWALEAGSPRSARIALRAAKEMAERLGDEELLELVEKLLEELESSSSS
B6: il10ra_site1_sap_18_mot_a6c796b944619e241e020fd597ddb6da_0001_af2_000000092_0001_15_31_H_._HHH_b2_04730_0001_0000100014_0000002_0_0001 (protein)
chain: SSSSSEEVYELSREAAELLREGNPEEARKVLEEAEELAEEENDWATLFAIRHMLRAIEELSSSSS
B7: il10ra_site1_sap_13_mot_HHH_b1_00456_000000263_0001_1_17_H_._HHH_b2_00124_0001_0000100008_0000001_0_0001_af2pred_dldesign_0_af2pred (protein)
chain: SSSSSPETEEIIRLIREALELQYEGKPEEAKEVLDKAIELAKKAGDEILLYTAEFLRKRLSSSSS
B8: il10ra_site1_sap_20_mot_HHH_b2_06602_000000226_0001_1_16_H_._HHH_b1_03811_0001_0000900013_0000001_0_0001 (protein)
chain: SSSSDEEEERFEELERLARELGNYILEHVLKFMLEIFEQTGDPRALRSAEESVRLIEEARSSSSS
B9: il10ra_site1_sap_22_mot_HHH_b1_02809_af2_000000277_0001_40_57_H_._HHH_b2_00372_af2_0001_0000300014_0000002_0_0001_af2pred_dldesign_0_af2pred (protein)
chain: SPLDELIALLAEVMGVPPEEVRRRLAELTAVTGDPREALRALVARAILRDPSHKEELESLLAKVE
B10: il10ra_site1_normal_mot_HHH_b1_02881_000000027_0001_1_20_H_._HHH_b1_06219_0001_0000400018_0000001_1_af2pred_dldesign_0_af2pred (protein)
chain: SSSSSSLVEEAKRLYEEGQALLAAGDLERLAEVIEELRKKYEETKHLAYESALRALERALSSSSS
B11: il10ra_site1_normal_mot_HHH_b1_06914_000000280_0001_1_18_H_._0e0d001460a8a8fa579fa20b8409dbd9_0001_1_0001_0000100003_0000001_0_af2pred_dldesign_0_af2pred (protein)
chain: SLLDRALELLLRDPDPAVRAEAERLRELLAAGSVPEEELLVRAIRLLAEAGRPEEAARLAREFLK
B12: il10ra_site1_normal_mot_8756ee2cf497b5429c717dfc0c0bcfd6_0001_000000186_0001_1_13_H_._HHH_b2_03896_0001_0000200012_0000001_0_af2pred_0001 (protein)
chain: SSSSSELAERIRELLRLVSELDLNGNPEEAEEVLEEARELAERAGNLVLEAQIRFLEEILNSSSS
B13: il10ra_site1_normal_mot_HHH_b2_02337_000000026_0001_38_52_H_._HHH_b1_03083_0001_0000200009_0000002_0 (protein)
chain: SSSSDVEEEVEELLEEIERLIEEGDFERAARLLAEATHVALRGQNQELLQRVWRLVQELYSSSSS
B14: il10ra_site1_sap_10_mot_HHH_b1_06914_000000280_0001_1_18_H_._HHH_b2_00948_0001_0000200009_0000001_0_0001 (protein)
chain: SSSSDRREIYELSRRAVELDSDGNPEEAEEVLREAIRLAEEAGDMVLLAVLEYLLRLLEENSSSS
B15: il10ra_site1_sap_8_mot_HHH_b1_02062_000000185_0001_1_20_H_._HHH_b1_08343_0001_0000200014_0000001_0_0001 (protein)
chain: SSSSDDYEFVEKAIEEAIKLYREGNPEEAQRLLREAEEYLEEKNNWAALFSIRHLLRVVENSSSS
B16: il10ra_site1_sap_19_mot_39a7b8d0c4c3fc04bafbda6ce6101d3a_0001_1_af2_000000014_0001_34_48_H_._HHH_b2_05756_0001_0000400014_0000001_1_0001 (protein)
chain: SSSSSEVEALAEAWKRALKELLEEGDPDQARVVAWLARWSLEEKGNPELAEEIEELYEELSSSSS
B17: il10ra_site1_sap_19_mot_HHH_b1_05357_000000034_0001_23_39_H_._HHH_b2_00301_0001_0000300008_0000001_0_0001 (protein)
chain: SSSSSSSWERSVELSIEAARRVEDPHLARAALRLAAEAARHSGNEELLEEAERLLEELRSSSSSS
B18: il10ra_site1_normal_mot_HHH_b2_00984_000000042_0001_1_20_H_._HHH_b2_07840_0001_0000100009_0000001_0 (protein)
chain: SSSSSSDLEELTEELEEAVREGDSEKASQIAQEAVRLAHRLRDQEALQELWELIQLVASSSSSSS
B19: il10ra_site1_sap_16_mot_HHH_b1_02690_000000078_0001_1_19_H_._HHH_b1_06328_0001_0000100001_0000003_0_0001 (protein)
chain: SSSSQEAYELLRRAIEELIELARKNDEEELERLVEEVAKELEKLGDTISVFVLRNALEILKSSSS
B20: il10ra_site1_sap_27_mot_HHH_b2_03565_000000130_0001_23_39_H_._HHH_b2_02910_0001_0000100007_0000001_0_0001 (protein)
chain: SSSSDEASQRIYRLLEEVARLDHEGDEEEARELLEEARELAEEANNRNLLMQIEFLEKLLNSSSS
B21: il10ra_site1_normal_mot_HHH_b2_05323_000000159_0001_1_18_H_._HHH_b2_06508_0001_0000600022_0000001_0 (protein)
chain: SSSSSALELVLEVFRLALRGNPEEALELLEEALELAREAGNERLVRVIEELAQALEAELGSSSSS
B22: il10ra_site1_sap_14_mot_HHH_b2_03220_af2_000000223_0001_23_40_H_._HHH_b2_04050_af2_0001_0000100005_0000002_0_0001 (protein)
chain: SSSSNEANQEALELSQKAFHLALRGNPEEAREVLEEAAELAREANNERLLKQIESLLKAQKSSSS
B23: il10ra_site1_normal_mot_HHH_b1_07094_000000116_0001_18_34_H_._HHH_b1_08730_0001_0000100011_0000002_0_af2pred_0001 (protein)
chain: SSSSSEDEEEIEELLEEAKRIEDEKELFEVLMEAYRIAVRNNNPEIVRLVSQVLAELSKRSSSSS
B24: il10ra_site1_normal_mot_HHH_b1_05357_000000034_0001_23_39_H_._HHH_b2_00663_0001_0000700041_0000001_0_af2pred_0001 (protein)
chain: SSSSSSDEEEVERLLEEAKHVPDPHRRAYLLIRAFAVAYKSNDPELRELVKEVAQKLLQSSSSSS

Biological target: il10ra, Q13651
Assay: yeast display titration

Apparent Kd, inactive:
B1 no binding seen, B2 no binding seen, B3 no binding seen, B4 no binding seen, B5 no binding seen, B6 no binding seen, B7 no binding seen, B8 no binding seen, B9 no binding seen, B10 no binding seen, B11 no binding seen, B12 no binding seen, B13 no binding seen, B14 no binding seen, B15 no binding seen, B16 no binding seen, B17 no binding seen, B18 no binding seen, B19 no binding seen, B20 no binding seen, B21 no binding seen, B22 no binding seen, B23 no binding seen, B24 no binding seen
